One substance from PMC5962693 can be followed below.

The target of the assay is T1, HIS-CT635 (C. trachomatis D/UW-3/CX) (UniProt O84640).
T1 sequence: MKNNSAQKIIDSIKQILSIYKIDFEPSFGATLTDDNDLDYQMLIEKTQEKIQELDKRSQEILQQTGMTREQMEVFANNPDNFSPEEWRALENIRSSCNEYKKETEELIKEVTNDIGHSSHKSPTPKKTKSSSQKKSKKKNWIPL
In words: pull-down; proteins co-expressed in E. coli; His-tagged protein pulled down from the bacterial lysate on Ni2+-NTA-Sepharose (300 mM NaCl, 50 mM NaH2PO4, pH 8.0, 1 h at 4°C); washes with 10 and 50 mM imidazole; fractions eluted in 500 mM imidazole shown by SDS-PAGE and Coomassie blue.

No constants are given. Whether binding was seen depends on the method and setting. In cells and extracts the contact can be indirect. Binding calls can cover weak binding; strength is not graded here. Tags and fused reporters may be left off the sequences shown.

In the case of CT622 (from UniProt O84627), the binding result was “binds”.
